Measured values published in patent publication US20240293351A1, “METHODS OF ADMINISTERING SYNTHETIC TRITERPENOIDS” (REATA PHARMACEUTICALS HOLDINGS, LLC, priority 2020, published 2024).
For some assays here: At least one read-out could not be matched to a standard name with certainty. For some assays here: For at least one compound, name, drawing or mass did not settle the structure.

What was measured:
[1] = system: endothelin-1 / endothelin receptor expression; test: Endothelin-1 and endothelin receptor expression in renal and endothelial cells; assay type: cell-based, human
[2] = Phase 1 drug-drug interaction study: omaveloxolone alone and with itraconazole in healthy subjects; details: plasma

SMILES | ET-1 expression ([1]; human cell lines including mesangial and endothelial cells) | Endothelin receptor expression ([1]; human mesangial and endothelial cells) | Endothelin-1 expression ([1]; renal proximal tubule epithelial cells, physiologically relevant concentrations) | Vz/F, geometric mean ([2]; 150 mg omaveloxolone alone (Reference)) [L] | Vz/F, geometric mean ([2]; 200 mg itraconazole QD + 150 mg omaveloxolone (Test)) [L]
COC(=O)[C@]12CCC(C)(C)C[C@H]1[C@H]1C(=O)C=C3[C@@]4(C)C=C(C#N)C(=O)C(C)(C)[C@@H]4CC[C@@]3(C)[C@]1(C)CC2 [Bardoxolone methyl, methyl-2-cyano-3,12-dioxooleana-1,9-dien-28-oic acid] | reduces ET-1 expression | inhibits endothelin receptor expression | inhibits endothelin-1 expression |  | 
CC1(C)CC[C@]2(NC(=O)C(C)(F)F)CC[C@]3(C)[C@H](C(=O)C=C4[C@@]5(C)C=C(C#N)C(=O)C(C)(C)[C@@H]5CC[C@]43C)[C@@H]2C1 [Omaveloxolone] |  |  |  | 11200 | 2320
